Source: patent US7335669B2, “Use of dihydroquinoline to aid in increasing milk production and feed utilization” (Novus International, Inc., priority 2002, dated 2008)

System: lactating dairy cows
Assay: Example 2: switch-over pen trial, ethoxyquin 65 ppm in feed for three weeks, approximately 2400 lactating dairy cows
Format: in vivo
Excerpt: Approximately 2400 lactating dairy cows were divided into two treatment groups of four pens per group. The cows in one of the two groups were fed ethoxyquin (at a concentration of 65 ppm by weight based on the weight of the total feed fed to the cows) for three weeks, with the four pens of the other group serving as controls. For the next two weeks, neither of the groups was fed ethoxyquin. The pens were then switched so that the previous control group was fed ethoxyquin (at a concentration of 65 ppm by weight based on the weight of the total feed fed to the cows) for three weeks. Milk production and feed intake were measured and feed efficiencies were calculated. The following table reports the means and pooled SEM results after correction for pen effects (wherein “Treated” refers to the cows receiving the ethoxyquin): […]

[1] = ethoxyquin 65 ppm by weight of total feed, three weeks

Question: Which “Variations in milk composition, treated vs control” value (ethoxyquin 65 ppm) does the source give for `CCOc1ccc2c(c1)C(C)=CC(C)(C)N2` [ethoxyquin, 6-ethoxy-1,2-dihydro-2,2,4-trimethylquinoline] here?
Answer: within the range of experimental error and so not significant

Question: And the “Milk content: Fat” value [1]?
Answer: 3.31%

Question: What about the “Milk content: Lactose” value [1] of the same compound?
Answer: 4.78%

Question: And the “Milk content: Protein” value [1]?
Answer: 2.92%

Question: And the “Milk content: SNF” value [1]?
Answer: 8.60%
